Measured data: PubChem BioAssay AID1053208 (Peter MacCallum Cancer Centre, 2014)
Assay: 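Genes whose silencing cuts survival of bone tumour cells only with doxorubicin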 (primary screen). Cells: mouse osteosarcoma cells, early-passage culture from an engineered mouse model of fibroblastic bone tumour. Reagents: siRNA pool against mouse genes, 40 nM. Timing: about 120 h (48 h before drug, then 72 h with drug). Conditions: doxorubicin 100 nM for 72 h, roughly 30-40% inhibitory dose. Measurement: 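Luminescent ATP signal taken as viability with or without 100 nM doxorubicin for 72 h; mean of two wells set against non-targeting siRNA and turned into robust z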. Direction: viability z-score with doxorubicin: higher = more viable cells under doxorubicin; viability z-score without drug: higher = more viable cells with knock-down alone. Call rule: 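Called active if knock-down leaves viability unchanged without drug (z within -2 to 2) but lowers it with doxorubicin (z at or under -2)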.
The deposit covers about 17,000 reagents; shown is a part drawn at random. 788 of all reagents (4.7%) were called active. 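Calls rest on z-score classes alone; an extra cut-off of viability at most 70% of control was not applied to them.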 Entries without a mark were called inactive. Further read-outs or replicates are left out here. Reagent sequences are not shown.

Ttll13 — combined z-score class = no change with or without drug; viability z-score with doxorubicin = 1.12; viability z-score without drug = 0.84
Iqcf3 — combined z-score class = no change with or without drug; viability z-score with doxorubicin = 0.79; viability z-score without drug = -0.17
Ing2 — combined z-score class = no change with or without drug; viability z-score with doxorubicin = -0.67; viability z-score without drug = -0.51
Snrpa — combined z-score class = no change with or without drug; viability z-score with doxorubicin = 1.12; viability z-score without drug = 0.51
Fgfr4 — combined z-score class = no change with or without drug; viability z-score with doxorubicin = -0.79; viability z-score without drug = 0.67
Zfp811 — combined z-score class = no change with or without drug; viability z-score with doxorubicin = -0.22; viability z-score without drug = 0.17
Ccdc91 — combined z-score class = no change with or without drug; viability z-score with doxorubicin = -0.67; viability z-score without drug = 0.51
Luzp1 — combined z-score class = no change with or without drug; viability z-score with doxorubicin = -0.45; viability z-score without drug = -0.17
Uchl1 — combined z-score class = no change with or without drug; viability z-score with doxorubicin = 0.11; viability z-score without drug = 0.84
Rbm45 — combined z-score class = no change with or without drug; viability z-score with doxorubicin = 0; viability z-score without drug = 0.51
Fcf1 — combined z-score class = no change with or without drug; viability z-score with doxorubicin = -1.12; viability z-score without drug = -0.67
Naxd — combined z-score class = no change with or without drug; viability z-score with doxorubicin = 1.57; viability z-score without drug = 1.35
Grm7 — combined z-score class = no change with or without drug; viability z-score with doxorubicin = 1.57; viability z-score without drug = -0.17
Gdpd2 — combined z-score class = no change with or without drug; viability z-score with doxorubicin = -0.34; viability z-score without drug = 1.18
Egfl7 — combined z-score class = no change with or without drug; viability z-score with doxorubicin = -0.9; viability z-score without drug = 1.01
Mid1 — combined z-score class = no change with or without drug; viability z-score with doxorubicin = -0.9; viability z-score without drug = 0.34
Cenatac — combined z-score class = low cell count with doxorubicin only (active); viability z-score with doxorubicin = -2.02; viability z-score without drug = -0.17
Ms4a7 — combined z-score class = no change with or without drug; viability z-score with doxorubicin = -0.45; viability z-score without drug = -0.84
Rnf141 — combined z-score class = low cell count without drug only; viability z-score with doxorubicin = -1.12; viability z-score without drug = -2.19
Klf6 — combined z-score class = no change with or without drug; viability z-score with doxorubicin = 0.67; viability z-score without drug = 0.34
H2-Q1 — combined z-score class = no change with or without drug; viability z-score with doxorubicin = 1.24; viability z-score without drug = 0.51
Syf2 — combined z-score class = no change with or without drug; viability z-score with doxorubicin = -0.9; viability z-score without drug = 0
Gng5 — combined z-score class = no change with or without drug; viability z-score with doxorubicin = -0.9; viability z-score without drug = 0.84
Adck1 — combined z-score class = no change with or without drug; viability z-score with doxorubicin = 0; viability z-score without drug = 0.17
Zfp263 — combined z-score class = no change with or without drug; viability z-score with doxorubicin = -1.12; viability z-score without drug = -0.51
Cytl1 — combined z-score class = no change with or without drug; viability z-score with doxorubicin = -0.34; viability z-score without drug = 0.17
Mgat5b — combined z-score class = no change with or without drug; viability z-score with doxorubicin = 0.9; viability z-score without drug = 0.51
Zfp109 — combined z-score class = no change with or without drug; viability z-score with doxorubicin = -0.22; viability z-score without drug = 1.85
Sec14l1 — combined z-score class = no change with or without drug; viability z-score with doxorubicin = 0; viability z-score without drug = -0.84
H4c16 — combined z-score class = no change with or without drug; viability z-score with doxorubicin = 1.24; viability z-score without drug = 0.51
Mtg1 — combined z-score class = no change with or without drug; viability z-score with doxorubicin = 1.35; viability z-score without drug = 1.18
Necab1 — combined z-score class = no change with or without drug; viability z-score with doxorubicin = -0.22; viability z-score without drug = 0.84
Dusp3 — combined z-score class = low cell count with and without drug; viability z-score with doxorubicin = -2.7; viability z-score without drug = -2.53
Cox5b — combined z-score class = no change with or without drug; viability z-score with doxorubicin = 0.9; viability z-score without drug = 1.85
Cntfr — combined z-score class = no change with or without drug; viability z-score with doxorubicin = -0.22; viability z-score without drug = 0
Cdh7 — combined z-score class = no change with or without drug; viability z-score with doxorubicin = -0.45; viability z-score without drug = -0.67

A few values from the list.
Under “viability z-score without drug”, Grm7 has -0.17
Result of Mgat5b under “viability z-score without drug”: 0.51
Value for Mid1 under “combined z-score class”: no change with or without drug
Result of Fcf1 in “viability z-score without drug”: -0.67
For “viability z-score with doxorubicin”, Sec14l1 shows 0
